Among the data in publication PMC3283662 are binding values, retold here.

Protein sequences, listed by entry. Tags and fused reporters are not part of them. Lines headed by an entry give the natural chain unless they say otherwise; changes in a name come on top.
UniProt Q865R3: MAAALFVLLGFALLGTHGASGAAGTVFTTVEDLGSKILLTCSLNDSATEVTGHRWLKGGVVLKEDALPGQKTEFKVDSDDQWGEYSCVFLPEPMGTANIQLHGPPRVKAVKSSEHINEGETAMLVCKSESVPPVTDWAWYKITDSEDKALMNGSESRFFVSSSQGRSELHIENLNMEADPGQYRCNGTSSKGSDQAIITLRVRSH

The assay deals with extracellular matrix metalloproteinase inducer (EMMPRIN) (bovine (endogenous in BAECs)) (UniProt Q865R3). Nature of the assay: co-IP; BAEC lysates (1% NP-40, 0.1% SDS, 0.1% deoxycholate, pH 7.5) precipitated with goat anti-EMMPRIN antibody and Protein G, goat IgG as control; blotted for eNOS and GOLPH3; washed with 50 mM Tris-HCl pH 7.5, 0.1 mM EDTA, 0.1 mM EGTA; repeated with 150 mM NaCl in the wash buffer (Figure S2).

No constants are given. Whether binding was seen depends on the method and setting. Binding seen in cells or lysates may run through a third protein. A result given as binding can be weak or reduced; the word gives no strength.

B1: Golgi phosphoprotein 3 (GOLPH3) (protein, UniProt Q1RMW9 1-298)
chain: MTSLTQRSSGLVQRRTEASRNAADKERAAGGGGGNDEDDAQSRRDEQDDDDKGDSKETRLTLMEEVLLLGLKDREGYTSFWNDCISSGLRGCMLIELALRGRLQLEACGMRRKSLLTRKVICKSDAPTGDVLLDEALKHVKETQPPETVQNWIELLSGETWNPLKLHYQLRNVRERLAKNLVEKGVLTTEKQNFLLFDMTTHPLTNNSIKQRLIKKVQEAVLDKWVNDPHRMDKRLLALLYLAHASDVLENAFAPLLDEQYDVATKRVRQLLDLDPEVECLKAGTNEVLWAVVAAFTK
As for B1, the binding entry is recorded as “binds”.

B2: Endothelial nitric oxide synthase (eNOS) (enzyme, UniProt P29473 1-1205)
chain: MGNLKSVGQEPGPPCGLGLGLGLGLCGKQGPASPAPEPSRAPAPATPHAPDHSPAPNSPTLTRPPEGPKFPRVKNWELGSITYDTLCAQSQQDGPCTPRCCLGSLVLPRKLQTRPSPGPPPAEQLLSQARDFINQYYSSIKRSGSQAHEERLQEVEAEVASTGTYHLRESELVFGAKQAWRNAPRCVGRIQWGKLQVFDARDCSSAQEMFTYICNHIKYATNRGNLRSAITVFPQRAPGRGDFRIWNSQLVRYAGYRQQDGSVRGDPANVEITELCIQHGWTPGNGRFDVLPLLLQAPDEAPELFVLPPELVLEVPLEHPTLEWFAALGLRWYALPAVSNMLLEIGGLEFSAAPFSGWYMSTEIGTRNLCDPHRYNILEDVAVCMDLDTRTTSSLWKDKAAVEINLAVLHSFQLAKVTIVDHHAATVSFMKHLDNEQKARGGCPADWAWIVPPISGSLTPVFHQEMVNYILSPAFRYQPDPWKGSATKGAGITRKKTFKEVANAVKISASLMGTLMAKRVKATILYASETGRAQSYAQQLGRLFRKAFDPRVLCMDEYDVVSLEHEALVLVVTSTFGNGDPPENGESFAAALMEMSGPYNSSPRPEQHKSYKIRFNSVSCSDPLVSSWRRKRKESSNTDSAGALGTLRFCVFGLGSRAYPHFCAFARAVDTRLEELGGERLLQLGQGDELCGQEEAFRGWAKAAFQASCETFCVGEEAKAAAQDIFSPKRSWKRQRYRLSTQAEGLQLLPGLIHVHRRKMFQATVLSVENLQSSKSTRATILVRLDTAGQEGLQYQPGDHIGICPPNRPGLVEALLSRVEDPPPPTESVAVEQLEKGSPGGPPPSWVRDPRLPPCTLRQALTFFLDITSPPSPRLLRLLSTLAEEPSEQQELETLSQDPRRYEEWKWFRCPTLLEVLEQFPSVALPAPLLLTQLPLLQPRYYSVSSAPNAHPGEVHLTVAVLAYRTQDGLGPLHYGVCSTWLSQLKTGDPVPCFIRGAPSFRLPPDPYVPCILVGPGTGIAPFRGFWQERLHDIESKGLQPAPMTLVFGCRCSQLDHLYRDEVQDAQERGVFGRVLTAFSREPDSPKTYVQDILRTELAAEVHRVLCLERGHMFVCGDVTMATSVLQTVQRILATEGDMELDEAGDVIGVLRDQQRYHEDIFGLTLRTQEVTSRIRTQSFSLQERHLRGAVPWAFDPPGPDTPGP
On to B2, for which the binding entry is on record as “binds”.
